Experimental data reported in paper doi:10.1101/2025.01.19.633807.
These are yes or no findings as the source states them, for the method shown. In cells and extracts the contact can be indirect. These calls come from enrichment with a bait or labelling near it, and not all partners need be listed. For some of these results: No binding means not detected with the bait. Tags and fused reporters may be left off the sequences shown.

Protein sequences, listed by entry. Tags and fused reporters are not part of them. Residues count along the entry.
UniProt P35637: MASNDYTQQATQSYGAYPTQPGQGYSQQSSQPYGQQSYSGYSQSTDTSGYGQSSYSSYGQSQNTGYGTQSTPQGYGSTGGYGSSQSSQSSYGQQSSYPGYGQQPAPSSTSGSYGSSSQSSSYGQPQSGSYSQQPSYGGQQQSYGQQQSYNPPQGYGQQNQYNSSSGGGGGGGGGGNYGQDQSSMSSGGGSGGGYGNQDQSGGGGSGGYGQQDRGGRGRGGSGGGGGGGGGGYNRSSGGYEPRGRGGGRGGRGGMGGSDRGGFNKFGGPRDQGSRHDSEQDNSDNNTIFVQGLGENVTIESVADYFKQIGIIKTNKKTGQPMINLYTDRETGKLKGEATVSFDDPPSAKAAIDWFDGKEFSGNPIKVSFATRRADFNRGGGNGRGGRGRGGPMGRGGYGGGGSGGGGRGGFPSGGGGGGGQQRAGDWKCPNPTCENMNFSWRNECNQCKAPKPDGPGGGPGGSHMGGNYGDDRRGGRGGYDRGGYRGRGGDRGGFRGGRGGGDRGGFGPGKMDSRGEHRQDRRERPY
UniProt P02545, residues 1-646: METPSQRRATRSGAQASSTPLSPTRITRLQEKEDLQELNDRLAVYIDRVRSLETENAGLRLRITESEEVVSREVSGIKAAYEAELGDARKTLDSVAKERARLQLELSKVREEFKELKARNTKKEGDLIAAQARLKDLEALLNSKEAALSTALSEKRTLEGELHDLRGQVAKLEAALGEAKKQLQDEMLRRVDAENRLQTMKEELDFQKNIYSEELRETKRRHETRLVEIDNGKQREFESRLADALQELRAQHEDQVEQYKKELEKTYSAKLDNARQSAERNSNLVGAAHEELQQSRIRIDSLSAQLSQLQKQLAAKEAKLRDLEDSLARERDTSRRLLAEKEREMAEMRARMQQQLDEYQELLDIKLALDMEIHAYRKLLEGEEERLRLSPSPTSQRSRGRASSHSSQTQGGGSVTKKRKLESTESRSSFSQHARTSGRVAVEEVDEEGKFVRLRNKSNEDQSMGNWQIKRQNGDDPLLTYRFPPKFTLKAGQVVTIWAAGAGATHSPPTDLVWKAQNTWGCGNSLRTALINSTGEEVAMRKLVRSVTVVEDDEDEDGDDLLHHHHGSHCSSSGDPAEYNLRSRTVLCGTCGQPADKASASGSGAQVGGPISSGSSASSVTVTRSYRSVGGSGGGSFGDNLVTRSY

B1: Non-POU domain-containing octamer-binding protein NONO (p54^nrb), endogenous (protein, UniProt Q15233 1-471)
chain: MQSNKTFNLEKQNHTPRKHHQHHHQQQHHQQQQQQPPPPPIPANGQQASSQNEGLTIDLKNFRKPGEKTFTQRSRLFVGNLPPDITEEEMRKLFEKYGKAGEVFIHKDKGFGFIRLETRTLAEIAKVELDNMPLRGKQLRVRFACHSASLTVRNLPQYVSNELLEEAFSVFGQVERAVVIVDDRGRPSGKGIVEFSGKPAARKALDRCSEGSFLLTTFPRPVTVEPMDQLDDEEGLPEKLVIKNQQFHKEREQPPRFAQPGSFEYEYAMRWKALIEMEKQQQDQVDRNIKEAREKLEMEMEAARHEHQVMLMRQDLMRRQEELRRMEELHNQEVQKRKQLELRQEEERRRREEEMRRQQEEMMRRQQEGFKGTFPDAREQEIRMGQMAMGGAMGINNRGAMPPAPVPAGTPAPPGPATMMPDGTLGLTPPTTERFGQAATMEGIGAIGGTPPAFNRAAPGAEFAPNKRRRY
B2: RNA binding motif protein 14 (RBM14) (protein, UniProt Q96PK6 1-669)
chain: MKIFVGNVDGADTTPEELAALFAPYGTVMSCAVMKQFAFVHMRENAGALRAIEALHGHELRPGRALVVEMSRPRPLNTWKIFVGNVSAACTSQELRSLFERRGRVIECDVVKDYAFVHMEKEADAKAAIAQLNGKEVKGKRINVELSTKGQKKGPGLAVQSGDKTKKPGAGDTAFPGTGGFSATFDYQQAFGNSTGGFDGQARQPTPPFFGRDRSPLRRSPPRASYVAPLTAQPATYRAQPSVSLGAAYRAQPSASLGVGYRTQPMTAQAASYRAQPSVSLGAPYRGQLASPSSQSAAASSLGPYGGAQPSASALSSYGGQAAAASSLNSYGAQGSSLASYGNQPSSYGAQAASSYGVRAAASSYNTQGAASSLGSYGAQAASYGAQSAASSLAYGAQAASYNAQPSASYNAQSAPYAAQQAASYSSQPAAYVAQPATAAAYASQPAAYAAQATTPMAGSYGAQPVVQTQLNSYGAQASMGLSGSYGAQSAAAATGSYGAAAAYGAQPSATLAAPYRTQSSASLAASYAAQQHPQAAASYRGQPGNAYDGAGQPSAAYLSMSQGAVANANSTPPPYERTRLSPPRASYDDPYKKAVAMSKRYGSDRRLAELSDYRRLSESQLSFRRSPTKSSLDYRRLPDAHSDYARYSGSYNDYLRAAQMHSGYQRRM
B3: Paraspeckle component 1 (PSPC1) (protein, UniProt Q8WXF1 1-523)
chain: MMLRGNLKQVRIEKNPARLRALESAVGESEPAAAAAMALALAGEPAPPAPAPPEDHPDEEMGFTIDIKSFLKPGEKTYTQRCRLFVGNLPTDITEEDFKRLFERYGEPSEVFINRDRGFGFIRLESRTLAEIAKAELDGTILKSRPLRIRFATHGAALTVKNLSPVVSNELLEQAFSQFGPVEKAVVVVDDRGRATGKGFVEFAAKPPARKALERCGDGAFLLTTTPRPVIVEPMEQFDDEDGLPEKLMQKTQQYHKEREQPPRFAQPGTFEFEYASRWKALDEMEKQQREQVDRNIREAKEKLEAEMEAARHEHQLMLMRQDLMRRQEELRRLEELRNQELQKRKQIQLRHEEEHRRREEEMIRHREQEELRRQQEGFKPNYMENREQEMRMGDMGPRGAINMGDAFSPAPAGNQGPPPMMGMNMNNRATIPGPPMGPGPAMGPEGAANMGTPMMPDNGAVHNDRFPQGPPSQMGSPMGSRTGSETPQAPMSGVGPVSGGPGGFGRGSQGGNFEGPNKRRRY
B4: Nuclear speckle protein SC35 (splicing component 35K) (protein, UniProt Q01130 1-221)
chain: MSYGRPPPDVEGMTSLKVDNLTYRTSPDTLRRVFEKYGRVGDVYIPRDRYTKESRGFAFVRFHDKRDAEDAMDAMDGAVLDGRELRVQMARYGRPPDSHHSRRGPPPRRYGGGGYGRRSRSPRRRRRSRSRSRSRSRSRSRSRYSRSKSRSRTRSRSRSTSKSRSARRSKSKSSSVSRSRSRSRSRSRSRSPPPVSKRESKSRSRSKSPPKSPEEEGAVSS

What was measured:
[1] = target: T1, TurboID-GYS1 fusion enzyme (UniProt P13807); experiment: proximity labelling
T1 sequence: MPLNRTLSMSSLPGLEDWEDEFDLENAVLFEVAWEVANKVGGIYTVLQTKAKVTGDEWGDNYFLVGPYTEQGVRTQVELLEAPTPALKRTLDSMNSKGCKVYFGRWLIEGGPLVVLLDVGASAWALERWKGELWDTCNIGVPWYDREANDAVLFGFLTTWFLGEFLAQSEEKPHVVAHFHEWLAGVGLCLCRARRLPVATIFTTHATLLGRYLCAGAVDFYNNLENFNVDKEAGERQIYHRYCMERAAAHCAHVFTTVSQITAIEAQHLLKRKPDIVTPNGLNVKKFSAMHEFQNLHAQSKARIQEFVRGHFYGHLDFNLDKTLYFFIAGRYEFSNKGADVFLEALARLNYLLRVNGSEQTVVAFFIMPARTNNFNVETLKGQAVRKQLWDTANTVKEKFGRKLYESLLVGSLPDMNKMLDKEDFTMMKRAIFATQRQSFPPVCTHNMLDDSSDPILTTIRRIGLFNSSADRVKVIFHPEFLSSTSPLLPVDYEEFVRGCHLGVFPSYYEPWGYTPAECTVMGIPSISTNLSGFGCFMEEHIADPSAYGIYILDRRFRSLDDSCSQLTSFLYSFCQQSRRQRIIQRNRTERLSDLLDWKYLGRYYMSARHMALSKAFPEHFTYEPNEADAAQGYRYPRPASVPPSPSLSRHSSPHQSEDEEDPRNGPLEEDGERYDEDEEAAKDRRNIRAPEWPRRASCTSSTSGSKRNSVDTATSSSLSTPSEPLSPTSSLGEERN

[2] = target: T1, TurboID-GYS1 fusion enzyme; experiment: affinity purification with mass spectrometry + proximity labelling

| Molecule | binding [1] | binding [2] |
| --- | --- | --- |
| Fused in sarcoma (FUS) (from UniProt P35637 1-526) | binds | binds |
| Lamin A/C (from UniProt P02545 1-646) | no binding |  |
| B1 | binds | binds |
| B2 | binds | binds |
| B3 | binds | binds |
| B4 | no binding |  |
